# Measured values from PubChem BioAssay AID540276 (National Center for Advancing Translational Sciences (NCATS), 2011).
# Hit rate of the full screen: of about 300,000 compounds, about 5,400 (1.8%) were called active. Inconclusive means that the source gave no clear call. Such entries were picked first, then a sample of the others. The call rests on the fitted dose curve; tested in HEK293 cells. A potency beside an inconclusive call is a rough fit, not a confirmed value.
# Test: qHTS for inhibitors of binding or entry into cells for Marburg Virus
# Conditions: Marburg virus pseudotyped entry inhibition, cell reporter; series mostly up to 37.8 µM
# Potency means the concentration at half of the fitted maximal effect.
row,Compound,Potency
1,CCOC(=O)Cc1c(C)nc2c(-c3ccc(Cl)cc3)cnn2c1C,inactive
2,CN(C)c1ncnc2c1ccn2C1OC(CO)C(O)C1O (stereo not given),active: 2.24 µM
3,COc1ccc(-n2c(C)cc(/C=C3/SC(=O)N(CC(=O)N4CCOCC4)C3=O)c2C)cc1,inactive
4,Cn1c(=O)c2c(nc(NCc3ccco3)n2CC(O)COc2ccccc2)n(C)c1=O (stereo not given),"inconclusive: 35.5 µM [inhibitor, partial curve, poor fit]"
5,Cc1ccc(C(c2c(O)nc3n(c2=O)CCS3)c2c(O)nc3n(c2=O)CCS3)cc1,"inconclusive: 31.6 µM [activator, single point]"
6,Cc1ccc(Cc2c(C)nc3nc(SCC(=O)NCCCN4CCCC4)nn3c2C)cc1,"inconclusive: 20 µM [inhibitor, partial curve, poor fit]"
7,CCOc1ccc(C(=O)CC(Sc2ccc(C)cc2)C(=O)O)cc1 (stereo not given),"inconclusive: 20 µM [inhibitor, partial curve, poor fit]"
8,CC(C)N1CCC(=NNC(=O)c2ccc(Br)o2)CC1,"inconclusive: 35.5 µM [activator, single point]"
9,O=c1c(CN2CCN(Cc3ccccc3)CC2)coc2ccc(Cl)cc12,inactive
10,CC1=CC(=O)C=CC1(C)C(Cl)(Cl)Cl (stereo not given),"inconclusive: 35.5 µM [activator, single point]"
11,N/C(Cc1ccc(Cl)cc1)=N\OC(=O)c1cccc2ccccc12,"inconclusive: 29.1 µM [inhibitor, single point]"
12,Cc1cccc(CCNS(=O)(=O)c2ccc3c(c2)CCN3C(=O)CCC(=O)O)c1,inactive
13,Fc1ccc(C2=CCN(C(c3ccc(Cl)cc3)c3nnnn3Cc3ccccc3)CC2)cc1 (stereo not given),"inconclusive: 2 µM [inhibitor, full curve, poor fit]"
14,COc1ccc2c(CC(=O)Nc3ccc(OC)nc3)coc2c1,"inconclusive: 12.6 µM [inhibitor, single point]"
15,Cc1cccc(NC(=O)C2CCCN(S(=O)(=O)c3ccc4[nH]c(=O)ccc4c3)C2)n1 (stereo not given),inactive
16,Cc1cccc(/C=N\NC(=O)c2csnn2)c1,inactive
17,Nc1ccc(Sc2ccc([N+](=O)[O-])cc2)cc1,inactive
18,COc1cccc(NC(=O)CSc2nnc(Cc3cccs3)n2-c2ccc(C)cc2)c1,"inconclusive: 29.1 µM [inhibitor, single point]"
19,COc1cc(/C=N\NC(=O)CNC(=O)C2COc3ccccc3O2)ccc1O (stereo not given),inactive
20,CCN1CCN(c2cc(C)c3cc(NC(=O)c4ccc(Br)o4)ccc3n2)CC1,"inconclusive: 9.2 µM [inhibitor, partial curve, poor fit]"

# Look-ups from above:
# Potency, `CCOc1ccc(C(=O)CC(Sc2ccc(C)cc2)C(=O)O)cc1` (stereo not given) is entered as inconclusive: 20 µM [inhibitor, partial curve, poor fit]
# Potency, `CC1=CC(=O)C=CC1(C)C(Cl)(Cl)Cl` (stereo not given) is entered as inconclusive: 35.5 µM [activator, single point]
